The values below come from article PMC8112863.

Sequences of proteins named here, by UniProt entry; tags and fusion partners are left off.
UniProt Q9NRX1: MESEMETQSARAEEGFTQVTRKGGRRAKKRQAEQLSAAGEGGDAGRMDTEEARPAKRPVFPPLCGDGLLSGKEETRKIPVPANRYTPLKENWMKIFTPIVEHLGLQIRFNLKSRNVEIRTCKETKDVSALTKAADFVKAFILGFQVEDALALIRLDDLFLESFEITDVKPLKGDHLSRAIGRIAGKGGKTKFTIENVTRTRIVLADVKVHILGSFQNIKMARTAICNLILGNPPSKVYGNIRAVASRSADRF

Assay [1] addresses T1, RIO1(wt)-StHA, wild-type RIO1 (human) (UniProt Q9BRS2).
T1 sequence: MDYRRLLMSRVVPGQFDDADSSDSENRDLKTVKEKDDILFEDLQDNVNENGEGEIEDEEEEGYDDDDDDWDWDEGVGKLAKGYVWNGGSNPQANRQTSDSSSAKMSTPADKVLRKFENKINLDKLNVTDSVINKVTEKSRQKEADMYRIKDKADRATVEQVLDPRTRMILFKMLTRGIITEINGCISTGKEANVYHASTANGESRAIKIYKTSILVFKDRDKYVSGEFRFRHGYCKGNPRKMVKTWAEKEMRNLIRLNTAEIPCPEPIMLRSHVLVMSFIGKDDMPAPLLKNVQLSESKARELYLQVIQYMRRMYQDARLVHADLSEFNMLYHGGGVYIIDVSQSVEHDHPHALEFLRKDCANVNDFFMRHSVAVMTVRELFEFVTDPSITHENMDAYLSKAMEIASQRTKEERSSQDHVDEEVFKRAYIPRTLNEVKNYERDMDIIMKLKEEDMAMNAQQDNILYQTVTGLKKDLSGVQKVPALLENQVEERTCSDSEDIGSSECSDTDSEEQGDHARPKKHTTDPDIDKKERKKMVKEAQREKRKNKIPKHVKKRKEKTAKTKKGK
As to the kind of experiment: co-IP; RIO1(wt)-StHA bait from control cells (scramble siRNA), anti-HA affinity gel, TAP buffer washes, SDS elution, western blot. A general note: A western blot detects proteins with antibodies after separation by electrophoresis.

Assay [2] has as its target T2, HASt-LTV1 (UniProt Q96GA3).
T2 sequence: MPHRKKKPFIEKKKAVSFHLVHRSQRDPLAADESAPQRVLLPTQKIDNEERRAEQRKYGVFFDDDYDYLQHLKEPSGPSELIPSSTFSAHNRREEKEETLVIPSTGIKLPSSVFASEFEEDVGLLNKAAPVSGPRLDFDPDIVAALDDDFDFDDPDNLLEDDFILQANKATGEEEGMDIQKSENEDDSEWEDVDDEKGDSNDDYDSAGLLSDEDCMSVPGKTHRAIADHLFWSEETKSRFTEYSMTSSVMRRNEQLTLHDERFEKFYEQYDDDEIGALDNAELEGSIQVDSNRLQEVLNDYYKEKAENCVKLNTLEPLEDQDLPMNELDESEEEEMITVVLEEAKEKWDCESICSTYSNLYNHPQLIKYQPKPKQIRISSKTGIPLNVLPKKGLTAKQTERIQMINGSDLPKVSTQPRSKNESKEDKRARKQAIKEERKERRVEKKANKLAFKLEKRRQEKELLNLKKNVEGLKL
As to the kind of experiment: co-IP; HASt- or StHA-tagged bait captured from HEK293 lysate on anti-HA affinity gel, washed with TAP buffer, eluted with SDS sample buffer, western blot; cells treated with scramble or RPS26 siRNA for 48 hr.

For assay [3], the target named is T3, RIO1(kd)-StHA, catalytically inactive RIO1 mutated on aspartic acid 324 (D324A) (human) (UniProt Q9BRS2).
T3 sequence: T1 sequence with D324A
Described as above.

The target of assay [4] is T1, RIO1(wt)-StHA, wild-type RIO1 (human). Described as above.

Positions count from the first letter of the chain named. These are yes or no findings as the source states them, for the method shown. In cells and extracts the contact can be indirect. Some entries that bind do so weakly or less than the wild type.

As for DIM2 (from UniProt Q9NRX1 1-252), the binding entry in assay [1] is listed as “binds weakly”; in assay [2], “binds”; in assay [3] it was “binds”; in assay [4], “binds”.

B1: NOB1 (enzyme, UniProt Q9ULX3 1-412)
chain: MAPVEHVVADAGAFLRHAALQDIGKNIYTIREVVTEIRDKATRRRLAVLPYELRFKEPLPEYVRLVTEFSKKTGDYPSLSATDIQVLALTYQLEAEFVGVSHLKQEPQKVKVSSSIQHPETPLHISGFHLPYKPKPPQETEKGHSACEPENLEFSSFMFWRNPLPNIDHELQELLIDRGEDVPSEEEEEEENGFEDRKDDSDDDGGGWITPSNIKQIQQELEQCDVPEDVRVGCLTTDFAMQNVLLQMGLHVLAVNGMLIREARSYILRCHGCFKTTSDMSRVFCSHCGNKTLKKVSVTVSDDGTLHMHFSRNPKVLNPRGLRYSLPTPKGGKYAINPHLTEDQRFPQLRLSQKARQKTNVFAPDYIAGVSPFVENDISSRSATLQVRDSTLGAGRRRLNPNASRKKFVKKR
On to B1, for which the binding result in assay [1] is “binds weakly”; in assay [3], “binds”; in assay [4], “binds”.

B2: EIF1AD (protein, UniProt Q8N9N8 1-165)
chain: MSQATKRKHVVKEVLGEHIVPSDQQQIVRVLRTPGNNLHEVETAQGQRFLVSMPSKYRKNIWIKRGDFLIVDPIEEGEKVKAEISFVLCKDHVRSLQKEGFWPEAFSEVAEKHNNRNRQTQPELPAEPQLSGEESSSEDDSDLFVNTNRRQYHESEEESEEEEAA
In the case of B2, in assay [3], the binding result is “binds”.
